Some entries share one result that the patent states for a list of compounds.
What was measured:
Format in all cases: in vivo
[1] = tested on: Rhipicephalus (Boophilus) microplus; test: Rhipicephalus (Boophilus) microplus; injection; details: 20 μg/tick, after 7 days
[2] = tested on: Ctenocephalides felis, strain "Georgi"; test: Test for cat fleas / oral uptake; details: 100 ppm in cattle blood, after 2 days
Procedure: 20 mg of the active compound are dissolved in 1 ml dimethylsulphoxide To prepare a suitable formulation (e.g. 100 ppm), the active compound solution is diluted to the respective desired concentration with cattle blood (e.g. 1 part by weight active compound solution with 199 parts by weight cattle blood).
20 unfed adult fleas (Ctenocephalides felis, strain “Georgi”) are placed into a chamber (Ø 5 cm) whose top and bottom are closed with gauze. A metal cylinder whose underside is covered with parafilm is placed onto the chamber. The cylinder contains the blood/active compound formulation which can be taken up by the fleas through the parafilm membrane. Whereas the blood is warmed to 37° C., the temperature in the area of the flea chambers is adjusted to room temperature.
After the desired time the mortality in % is determined. Here 100% means that all fleas were killed; 0% means that no fleas were killed.

Musca domestica = test: Test for Musca domestica; details: 100 ppm after 2 days
Lucilia cuprina larvae = test: Test for Lucilia cuprina larvae; details: 100 ppm after 2 days
Procedure: 20 mg of active compound are dissolved in 1 ml of dimethyl sulphoxide. To prepare a suitable formulation (e.g. 100 ppm), the active compound solution is diluted to the respective desired concentration with water (e.g. 1 part by weight active compound solution with 199 parts by weight water).
Approximately 20 Lucilia cuprina larvae are introduced into a test tube which contains approx. 1 cm^3 horse meat and 0.5 ml of the active compound preparation to be tested. After 48 hours, the efficacy of the active compound preparation is determined as % larval mortality. 0%: no larvae were killed, 100%: all larvae were killed.

## FC(F)(F)C1(c2cc(Cl)cc(Cl)c2)CC(c2ccc(-n3cncn3)cc2)=NO1 (racemic) [Compound 91]
[1]
  activity (no deposit of fertile eggs): > 90%
[2]
  kill (mortality): > 80%
Musca domestica
  larval mortality: > 95%
Lucilia cuprina larvae
  larval mortality: > 95%

## Fc1cc(C2=NOC(c3cc(Cl)cc(Cl)c3)(C(F)(F)F)C2)ccc1-n1cncn1 (racemic) [Compound 93]
[1]
  activity (no deposit of fertile eggs): > 90%
[2]
  kill (mortality): > 80%
Musca domestica
  larval mortality: > 95%
Lucilia cuprina larvae
  larval mortality: > 95%

## FC(F)(F)C1(c2cc(Cl)cc(Cl)c2)CC(c2ccc(-n3cccn3)c(Cl)c2)=NO1 (stereo not drawn) [Compound 8]
[1]
  activity (no deposit of fertile eggs): > 90%
[2]
  kill (mortality): > 80%
Musca domestica
  larval mortality: > 95%
Lucilia cuprina larvae
  larval mortality: > 95%

## FC(F)(F)C1(c2cc(Cl)cc(Cl)c2)CC(c2ccc(-n3cccn3)c(Br)c2)=NO1 (stereo not drawn) [Compound 9]
[1]
  activity (no deposit of fertile eggs): > 90%
[2]
  kill (mortality): > 80%
Musca domestica
  larval mortality: > 95%
Lucilia cuprina larvae
  larval mortality: > 95%

## O=[N+]([O-])c1cnn(-c2ccc(C3=NOC(c4cc(Cl)cc(Cl)c4)(C(F)(F)F)C3)cc2Br)c1 (stereo not drawn) [Compound 12]
[1]
  activity (no deposit of fertile eggs): > 90%
[2]
  kill (mortality): > 80%
Lucilia cuprina larvae
  larval mortality: > 95%

## Cc1cnn(-c2ccc(C3=NOC(c4cc(Cl)cc(Cl)c4)(C(F)(F)F)C3)cc2C#N)c1 (stereo not drawn) [Compound 14]
[1]
  activity (no deposit of fertile eggs): > 90%
[2]
  kill (mortality): > 80%
Musca domestica
  larval mortality: > 95%
Lucilia cuprina larvae
  larval mortality: > 95%

## N#Cc1cc(C2=NOC(c3cc(Cl)cc(Cl)c3)(C(F)(F)F)C2)ccc1-n1cc(Br)cn1 (stereo not drawn) [Compound 18]
[1]
  activity (no deposit of fertile eggs): > 90%
[2]
  kill (mortality): > 80%
Musca domestica
  larval mortality: > 95%
Lucilia cuprina larvae
  larval mortality: > 95%

## N#Cc1cc(C2=NOC(c3cc(Cl)cc(Cl)c3)(C(F)(F)F)C2)ccc1-n1cc(I)cn1 (stereo not drawn) [Compound 19]
[2]
  kill (mortality): > 80%
Musca domestica
  larval mortality: > 95%
Lucilia cuprina larvae
  larval mortality: > 95%

## N#Cc1cnn(-c2ccc(C3=NOC(c4cc(Cl)cc(Cl)c4)(C(F)(F)F)C3)cc2C#N)c1 (stereo not drawn) [Compound 20]
[1]
  activity (no deposit of fertile eggs): > 90%
[2]
  kill (mortality): > 80%
Musca domestica
  larval mortality: > 95%
Lucilia cuprina larvae
  larval mortality: > 95%

## FC(F)(F)c1cccc(C2(C(F)(F)F)CC(c3ccc(-n4cccn4)c(Br)c3)=NO2)c1 (stereo not drawn) [Compound 30]
[1]
  activity (no deposit of fertile eggs): > 90%
[2]
  kill (mortality): > 80%
Musca domestica
  larval mortality: > 95%
Lucilia cuprina larvae
  larval mortality: > 95%

## N#Cc1cc(C2=NOC(c3cccc(C(F)(F)F)c3)(C(F)(F)F)C2)ccc1-n1cc(I)cn1 (stereo not drawn) [Compound 36]
[1]
  activity (no deposit of fertile eggs): > 90%
[2]
  kill (mortality): > 80%
Musca domestica
  larval mortality: > 95%
Lucilia cuprina larvae
  larval mortality: > 95%

## FC(F)(F)c1cc(C(F)(F)F)cc(C2(C(F)(F)F)CC(c3ccc(-n4cc(Cl)cn4)c(Br)c3)=NO2)c1 (stereo not drawn) [Compound 40]
[1]
  activity (no deposit of fertile eggs): > 90%
[2]
  kill (mortality): > 80%
Musca domestica
  larval mortality: > 95%
Lucilia cuprina larvae
  larval mortality: > 95%

## N#Cc1cc(C2=NOC(c3cc(C(F)(F)F)cc(C(F)(F)F)c3)(C(F)(F)F)C2)ccc1-n1cccn1 (stereo not drawn) [Compound 42]
[1]
  activity (no deposit of fertile eggs): > 90%
[2]
  kill (mortality): > 80%
Musca domestica
  larval mortality: > 95%
Lucilia cuprina larvae
  larval mortality: > 95%

## N#Cc1cc(C2=NOC(c3cc(C(F)(F)F)cc(C(F)(F)F)c3)(C(F)(F)F)C2)ccc1-n1cc(Cl)cn1 (stereo not drawn) [Compound 43]
[1]
  activity (no deposit of fertile eggs): > 90%
[2]
  kill (mortality): > 80%
Musca domestica
  larval mortality: > 95%
Lucilia cuprina larvae
  larval mortality: > 95%

## N#Cc1cc(C2=NOC(c3cc(C(F)(F)F)cc(C(F)(F)F)c3)(C(F)(F)F)C2)ccc1-n1cc(Br)cn1 (stereo not drawn) [Compound 44]
[1]
  activity (no deposit of fertile eggs): > 90%
[2]
  kill (mortality): > 80%
Musca domestica
  larval mortality: > 95%
Lucilia cuprina larvae
  larval mortality: > 95%

## N#Cc1cc(C2=NOC(c3cc(C(F)(F)F)cc(C(F)(F)F)c3)(C(F)(F)F)C2)ccc1-n1cc(I)cn1 (stereo not drawn) [Compound 45]
[1]
  activity (no deposit of fertile eggs): > 90%
Musca domestica
  larval mortality: > 95%
Lucilia cuprina larvae
  larval mortality: > 95%

## N#Cc1cnn(-c2ccc(C3=NOC(c4cc(C(F)(F)F)cc(C(F)(F)F)c4)(C(F)(F)F)C3)cc2C#N)c1 (stereo not drawn) [Compound 46]
[1]
  activity (no deposit of fertile eggs): > 90%
Musca domestica
  larval mortality: > 95%
Lucilia cuprina larvae
  larval mortality: > 95%

## FC(F)(F)c1cccc(C2(C(F)(F)F)CC(c3ccc(-n4ccnc4)c(Br)c3)=NO2)c1 (stereo not drawn) [Compound 54]
[2]
  kill (mortality): > 80%
Lucilia cuprina larvae
  larval mortality: > 95%

## N#Cc1cc(C2=NOC(c3cccc(C(F)(F)F)c3)(C(F)(F)F)C2)ccc1-n1ccnc1 (stereo not drawn) [Compound 55]
Musca domestica
  larval mortality: > 95%
Lucilia cuprina larvae
  larval mortality: > 95%

## FC(F)(F)c1cc(C(F)(F)F)cc(C2(C(F)(F)F)CC(c3ccc(-n4ccnc4)c(Br)c3)=NO2)c1 (stereo not drawn) [Compound 58]
[2]
  kill (mortality): > 80%
Musca domestica
  larval mortality: > 95%
Lucilia cuprina larvae
  larval mortality: > 95%

## N#Cc1cc(C2=NOC(c3cc(C(F)(F)F)cc(C(F)(F)F)c3)(C(F)(F)F)C2)ccc1-n1ccnc1 (stereo not drawn) [Compound 59]
Lucilia cuprina larvae
  larval mortality: > 95%

## O=[N+]([O-])c1cc(C2=NOC(c3cc(C(F)(F)F)cc(C(F)(F)F)c3)(C(F)(F)F)C2)ccc1-n1ccnc1 (stereo not drawn) [Compound 60]
[2]
  kill (mortality): > 80%
Musca domestica
  larval mortality: > 95%
Lucilia cuprina larvae
  larval mortality: > 95%

## FC(F)(F)C1(c2cc(Cl)cc(Cl)c2)CC(c2ccc(-n3ccnn3)cc2)=NO1 (stereo not drawn) [Compound 61]
[2]
  kill (mortality): > 80%
Musca domestica
  larval mortality: > 95%
Lucilia cuprina larvae
  larval mortality: > 95%

## FC(F)(F)C1(c2cc(Cl)cc(Cl)c2)CC(c2ccc(-n3ccnn3)c(Br)c2)=NO1 (stereo not drawn) [Compound 62]
[2]
  kill (mortality): > 80%
Musca domestica
  larval mortality: > 95%
Lucilia cuprina larvae
  larval mortality: > 95%

## N#Cc1cc(C2=NOC(c3cc(Cl)cc(Cl)c3)(C(F)(F)F)C2)ccc1-n1ccnn1 (stereo not drawn) [Compound 63]
[1]
  activity (no deposit of fertile eggs): > 90%
Lucilia cuprina larvae
  larval mortality: > 95%

## N#Cc1cc(C2=NOC(c3cccc(C(F)(F)F)c3)(C(F)(F)F)C2)ccc1-n1ccnn1 (stereo not drawn) [Compound 66]
[1]
  activity (no deposit of fertile eggs): > 90%
[2]
  kill (mortality): > 80%
Musca domestica
  larval mortality: > 95%
Lucilia cuprina larvae
  larval mortality: > 95%

## FC(F)(F)c1cc(C(F)(F)F)cc(C2(C(F)(F)F)CC(c3ccc(-n4ccnn4)c(Br)c3)=NO2)c1 (stereo not drawn) [Compound 67]
[1]
  activity (no deposit of fertile eggs): > 90%
[2]
  kill (mortality): > 80%
Musca domestica
  larval mortality: > 95%
Lucilia cuprina larvae
  larval mortality: > 95%

## N#Cc1cc(C2=NOC(c3cc(C(F)(F)F)cc(C(F)(F)F)c3)(C(F)(F)F)C2)ccc1-n1ccnn1 (stereo not drawn) [Compound 68]
[1]
  activity (no deposit of fertile eggs): > 90%
Musca domestica
  larval mortality: > 95%
Lucilia cuprina larvae
  larval mortality: > 95%

## FC(F)(F)C1(c2cc(Cl)cc(Cl)c2)CC(c2ccc(-n3nccn3)c(Br)c2)=NO1 (stereo not drawn) [Compound 70]
[1]
  activity (no deposit of fertile eggs): > 90%
Musca domestica
  larval mortality: > 95%
Lucilia cuprina larvae
  larval mortality: > 95%

## N#Cc1cc(C2=NOC(c3cc(Cl)cc(Cl)c3)(C(F)(F)F)C2)ccc1-n1nccn1 (stereo not drawn) [Compound 71]
[1]
  activity (no deposit of fertile eggs): > 90%
[2]
  kill (mortality): > 80%
Musca domestica
  larval mortality: > 95%
Lucilia cuprina larvae
  larval mortality: > 95%

## O=[N+]([O-])c1cc(C2=NOC(c3cc(Cl)cc(Cl)c3)(C(F)(F)F)C2)ccc1-n1nccn1 (stereo not drawn) [Compound 72]
[1]
  activity (no deposit of fertile eggs): > 90%
[2]
  kill (mortality): > 80%
Musca domestica
  larval mortality: > 95%
Lucilia cuprina larvae
  larval mortality: > 95%

## FC(F)(F)c1cccc(C2(C(F)(F)F)CC(c3ccc(-n4nccn4)c(Br)c3)=NO2)c1 (stereo not drawn) [Compound 73]
[1]
  activity (no deposit of fertile eggs): > 90%
[2]
  kill (mortality): > 80%
Musca domestica
  larval mortality: > 95%
Lucilia cuprina larvae
  larval mortality: > 95%

## FC(F)(F)c1cc(C(F)(F)F)cc(C2(C(F)(F)F)CC(c3ccc(-n4nccn4)c(Br)c3)=NO2)c1 (stereo not drawn) [Compound 75]
[1]
  activity (no deposit of fertile eggs): > 90%
[2]
  kill (mortality): > 80%
Musca domestica
  larval mortality: > 95%
Lucilia cuprina larvae
  larval mortality: > 95%

## N#Cc1cc(C2=NOC(c3cc(C(F)(F)F)cc(C(F)(F)F)c3)(C(F)(F)F)C2)ccc1-n1nccn1 (stereo not drawn) [Compound 76]
[1]
  activity (no deposit of fertile eggs): > 90%
[2]
  kill (mortality): > 80%
Musca domestica
  larval mortality: > 95%
Lucilia cuprina larvae
  larval mortality: > 95%

## FC(F)(F)C1(c2ccccc2)CC(c2ccc(-n3cncn3)cc2)=NO1 (stereo not drawn) [Compound 77]
[1]
  activity (no deposit of fertile eggs): > 90%
[2]
  kill (mortality): > 80%
Musca domestica
  larval mortality: > 95%
Lucilia cuprina larvae
  larval mortality: > 95%

## FC(F)(F)C1(c2ccccc2)CC(c2ccc(-n3cncn3)c(Cl)c2)=NO1 (stereo not drawn) [Compound 78]
[1]
  activity (no deposit of fertile eggs): > 90%
[2]
  kill (mortality): > 80%
Musca domestica
  larval mortality: > 95%
Lucilia cuprina larvae
  larval mortality: > 95%

## Fc1cc(F)cc(C2(C(F)(F)F)CC(c3ccc(-n4cncn4)c(Cl)c3)=NO2)c1 (stereo not drawn) [Compound 82]
[1]
  activity (no deposit of fertile eggs): > 90%
[2]
  kill (mortality): > 80%
Musca domestica
  larval mortality: > 95%
Lucilia cuprina larvae
  larval mortality: > 95%

— patent publication US20110086886A2, “INSECTICIDAL ISOXAZOLINES” (Bayer CropScience AG, priority 2006, published 2011)
